Experimental findings from the supplement of paper PMC11348887 are described below.

Counter-ions that a name gives are not always drawn. This is one part of the list. Most entries show no effect beyond the scatter of the controls.

The subject of this test is hPSC-derived cortical neurons (WA09). In words: nucleus roundness z-score vs screen plate; higher = rounder nuclei (more mature). To be noted: 5 µM; treatment: days 7-14 after plating, readout day 21.
For the molecule `CC(C(=O)O)c1ccc(-c2ccccc2)c(F)c1` (centres undefined) [Flurbiprofen], the nucleus roundness z-score is 0.186.
`CCCc1cc2c(N3CCN(C4=NCC(C)(C)S4)CC3)ncnc2s1` [MI-2 (Menin-MLL Inhibitor)] yielded a nucleus roundness z-score of -4.33.
`Cc1ccc(NC(=O)c2ccc(CN3CCN(C)CC3)cc2)cc1Nc1nc(-c2cccnc2)cs1` [Masitinib (AB1010)] came in with a nucleus roundness z-score of -0.497.
On to `O=C(/C=C\n1cnc(-c2cc(C(F)(F)F)cc(C(F)(F)F)c2)n1)N1CC(F)(F)C1`, for which the nucleus roundness z-score is -5.81.
Regarding `O=C1c2c(O)ccc(O)c2C(=O)c2c(NCCNCCO)ccc(NCCNCCO)c21` [Mitoxantrone HCl], the nucleus roundness z-score stood at 1.26.
Consider `C#C[C@]1(O)CC[C@H]2[C@@H]3CCC4=CC(=O)CC[C@@H]4[C@H]3CC[C@@]21CC` [Levonorgestrel], for which the nucleus roundness z-score is -0.348.
`CN1[C@@H]2CC[C@H]1C[C@@H](OC(c1ccccc1)c1ccccc1)C2` [Benztropine mesylate] yielded a nucleus roundness z-score of -0.405.
As to `CCCc1nc(C(C)(C)O)c(C(=O)OCc2oc(=O)oc2C)n1Cc1ccc(-c2ccccc2-c2nnn[nH]2)cc1` [Olmesartan Medoxomil], the nucleus roundness z-score is -0.328.
On to `O=C(NCCCNc1nc(Nc2cccc(NC(=O)N3CCCC3)c2)ncc1I)c1cccs1`, for which the nucleus roundness z-score was -0.357.
`CCCN[C@H]1CCc2nc(N)sc2C1` [Pramipexole] registered a nucleus roundness z-score of -0.908.
`NC[C@H]1O[C@H](O[C@H]2[C@H](O[C@@H]3O[C@H](CO)[C@@H](O)[C@H]3O)[C@@H](O)[C@H](N)C[C@@H]2N)[C@H](N)[C@@H](O)[C@@H]1O` [Ribostamycin Sulfate]: the nucleus roundness z-score is -0.00253.
`N[C@@H](CC(=O)N1CCn2c(nnc2C(F)(F)F)C1)Cc1cc(F)c(F)cc1F` [Sitagliptin phosphate monohydrate] showed a nucleus roundness z-score of -0.914.
In the case of `CCOc1nc2cccc(C(=O)O)c2n1Cc1ccc(-c2ccccc2-c2nnn[nH]2)cc1` [Candesartan], the nucleus roundness z-score is -0.00357.
For `C=C[C@@]1(C)CC(=O)[C@]2(O)[C@@]3(C)[C@@H](O)CCC(C)(C)[C@@H]3[C@H](O)[C@H](OC(C)=O)[C@@]2(C)O1` [Forskolin] the value was 2.61.
On to `Cc1cc(Cn2cnc3c2CC(C(=O)O)N(C(=O)C(c2ccccc2)c2ccccc2)C3)ccc1N(C)C` (centres undefined), for which the nucleus roundness z-score is -1.31.
With `NC12CC3CC(CC(C3)C1)C2` [Amantadine HCl], the nucleus roundness z-score was -0.621.
As to `C[C@H]1COc2c(N3CCN(C)CC3)c(F)cc3c(=O)c(C(=O)O)cn1c23` [Levofloxacin hydrate], the nucleus roundness z-score was determined as 0.531.
For the molecule `Oc1ccc([C@H]2COc3cc(O)ccc3C2)cc1` [Equol], the nucleus roundness z-score was determined as 0.933.
Under `O=C(O)C1=CO[C@@H](O[C@@H]2O[C@H](CO)[C@@H](O)[C@H](O)[C@H]2O)[C@@H]2C(CO)=CC[C@H]12` [Geniposidic acid] stands 0.14; under `CCOC(=O)[N-]c1c[n+](N2CCOCC2)no1` [Molsidomine], 0.264; under `Cc1ccc(C)c(OCCCC(C)(C)C(=O)O)c1` [Gemfibrozil], -0.765.
With `Cc1ccc(S(=O)(=O)n2c(N)nc3ccccc32)cc1` [ML130 (Nodinitib-1)], the nucleus roundness z-score worked out at 1.05.
`CC1(C)CC[C@]2(C(=O)O)CC[C@]3(C)C(=CC[C@@H]4[C@@]5(C)CC[C@H](O)C(C)(C)[C@@H]5CC[C@]43C)[C@@H]2C1` [Oleanolic Acid] gave a nucleus roundness z-score of -1.02.
Molecule `CCCC(C(=O)OCCN(CC)CC)(c1ccccc1)c1ccccc1` [Proadifen HCl] registered a nucleus roundness z-score of -1.66.
For `O=C(N/N=C/c1ccc(O)c(O)c1)c1cc2ccccc2cc1O` [Dynasore] the value was 0.397.
`CC(C)NCC(O)COc1ccc(CCOCC2CC2)cc1` (centres undefined) [Betaxolol]: the nucleus roundness z-score turned out to be 0.254.
For `C=CC(=O)Nc1cccc(Nc2nc(Nc3ccc(Oc4ccnc(C(=O)NC)c4)cc3)ncc2F)c1` the value was -0.133; for `CCN1/C(=C/C(C)=O)Sc2ccc(OC)cc21`, -0.00359.
In the case of `COCCOC(=O)C1=C(C)NC(C)=C(C(=O)OC/C=C/c2ccccc2)C1c1cccc([N+](=O)[O-])c1` (centres undefined) [Cilnidipine], the nucleus roundness z-score came out at 0.252.
Molecule `Oc1ccc(/C=C/c2cc(O)cc(O)c2)cc1` [Resveratrol] had a nucleus roundness z-score of -0.0392.
On to `CC(C(=O)O)c1cccc(C(=O)c2ccccc2)c1` (centres undefined) [Ketoprofen], for which the nucleus roundness z-score was 0.33.
With `O=C1[C@H](CC[C@H](O)c2ccc(F)cc2)[C@@H](c2ccc(O)cc2)N1c1ccc(F)cc1` [Ezetimibe], the nucleus roundness z-score was 1.44.
On to `O=c1[nH]nc(Sc2ncc([N+](=O)[O-])s2)n1-c1ccc2c(c1)OCCO2`, for which the nucleus roundness z-score is -3.98.
For the molecule `NCC(=O)Nc1ccc(-n2nc(C(F)(F)F)cc2-c2ccc3c(ccc4ccccc43)c2)cc1`, the nucleus roundness z-score is -1.26.
